Reference: PubChem BioAssay AID1259405 (NCATS, 2018)

- Test: 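Mouse-designed siRNAs used to find CHO productivity engineering targets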 (primary screen)
- Cell system: Chinese hamster CHO-K1 ovary cells with stable secreted eGFP expression
- Knock-down reagent: single siRNA against mouse genes, 0.8 pmol siRNA per well (2 µl of 400 nM stock)
- Time to read-out: 3 days
- Measurement: 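Per-well intracellular GFP measured by laser scanning cytometry, plus viability from ATP luminescence, each relative to plate median of non-targeting control wells, in %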
- Reading the numbers: GFP, % of control: higher = more GFP per well, higher productivity; viability (ATP), % of control: higher = more viable cells (more ATP)
- Hit rule: 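a knock-down is called active if GFP reaches 120% or more of non-targeting control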
In all, the deposit lists about 50,000 reagents; shown is a part drawn at random. Of all reagents, about 4,000 (8%) got an active call. 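Mouse siRNA library applied to hamster cells; one well for each siRNA.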 Entries without a mark were called inactive. Reagents against one gene are numbered here. No sequences are given here.

gene knocked down	siRNA no.	GFP, % of control	viability (ATP), % of control
Arrdc3	1	61.8	60.4
Arrdc3	2	89	96.4
Arrdc3	3	85.5	108
Gm20735	1	91.1	72.5
Gm20735	2	77.7	61.2
Gm20735	3	69.7	97.6
Lztr1	1	98.4	105
Lztr1	2	111	103
Lztr1	3	76.6	81.6
Zswim1	1	110	95.4
Zswim1	2	94.5	64.1
Zswim1	3	96.2	109

Continued (5 carried over from the part before).
gene knocked down	siRNA no.	GFP, % of control	viability (ATP), % of control
Lztr1	2	111	103
Lztr1	3	76.6	81.6
Zswim1	1	110	95.4
Zswim1	2	94.5	64.1
Zswim1	3	96.2	109
Gcnt2	1	42.6	44
Gcnt2	2	74.5	81.8
Gcnt2	3	74.2	70.4
Armcx1	1	58.9	66.3
Armcx1	2	45.4	55.9
Armcx1	3	52.5	67.7
Ubap2l	1	69	64.7
Ubap2l	2	114	98.9
Ubap2l	3	113	87.2
Dennd6b	1	86.6	67.9
Dennd6b	2	46.5	44.7
Dennd6b	3	107	70.7
Zbed4	1	46.3	45.3
Zbed4	2	38.5	67.8
Zbed4	3	79.8	102
Cbln3	1	53.5	43.6
Cbln3	2	61.7	68.3
Cbln3	3	48.7	62.4
Pudp	1	85.1	98.6
Pudp	2	94.6	79.9
Pudp	3	87.1	87.4
Trim11	1	81.1	69.2
Trim11	2	111	73.5
Trim11	3	69.7	78.3
